This is an account of results in patent US20230192863A1.

Amino acid sequences for entries named in this document (tags omitted). Residues count along the entry.
UniProt E9Q1P8, residues 2-570: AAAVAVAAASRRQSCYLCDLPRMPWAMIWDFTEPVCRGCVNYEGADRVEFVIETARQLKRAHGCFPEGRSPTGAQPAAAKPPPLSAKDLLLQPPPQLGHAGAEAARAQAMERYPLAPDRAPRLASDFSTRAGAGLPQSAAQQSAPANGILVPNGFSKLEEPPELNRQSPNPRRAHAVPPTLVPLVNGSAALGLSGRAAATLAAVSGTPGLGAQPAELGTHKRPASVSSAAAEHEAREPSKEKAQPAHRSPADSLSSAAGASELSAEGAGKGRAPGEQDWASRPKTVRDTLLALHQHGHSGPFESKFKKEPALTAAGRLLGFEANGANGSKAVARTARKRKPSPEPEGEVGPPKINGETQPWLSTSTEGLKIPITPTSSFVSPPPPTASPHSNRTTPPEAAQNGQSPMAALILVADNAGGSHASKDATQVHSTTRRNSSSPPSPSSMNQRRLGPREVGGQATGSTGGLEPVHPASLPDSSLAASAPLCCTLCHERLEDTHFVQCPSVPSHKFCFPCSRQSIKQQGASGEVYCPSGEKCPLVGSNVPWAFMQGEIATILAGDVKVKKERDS

For the experiment, the target named is T1, interferon regulatory factor-2 (IRF2) (mouse) (UniProt P23906).
T1 sequence (looked up): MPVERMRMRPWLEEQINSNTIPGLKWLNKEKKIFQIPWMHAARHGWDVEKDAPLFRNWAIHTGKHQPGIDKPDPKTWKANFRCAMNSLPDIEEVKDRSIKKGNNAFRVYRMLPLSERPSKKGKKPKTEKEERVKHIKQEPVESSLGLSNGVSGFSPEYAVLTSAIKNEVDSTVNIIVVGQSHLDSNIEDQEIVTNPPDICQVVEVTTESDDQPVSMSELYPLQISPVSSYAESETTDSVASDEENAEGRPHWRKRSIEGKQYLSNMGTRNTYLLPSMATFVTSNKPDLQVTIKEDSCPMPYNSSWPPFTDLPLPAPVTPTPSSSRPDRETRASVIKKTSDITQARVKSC
Put plainly: co-immunoprecipitation of IRF2 from MM1 cells, immunoblot for IRF2BP2.

These are yes or no findings as the source states them, for the method shown. In cells and extracts the contact can be indirect. Some binding calls cover weakened binding; strength is not graded here.

As to “IRF2 binding protein 2 (IRF2BP2) (from UniProt E9Q1P8 2-570)”, the binding entry is “binds”.
